According to paper PMC6609635:
Results are given in words; binding and its absence hold for the method and conditions named. Binding seen in cells or lysates may run through a third protein. Some binding calls cover weakened binding; strength is not graded here.

Chains of the proteins cited; added tags and fusions are not shown.
UniProt Q6NZM9: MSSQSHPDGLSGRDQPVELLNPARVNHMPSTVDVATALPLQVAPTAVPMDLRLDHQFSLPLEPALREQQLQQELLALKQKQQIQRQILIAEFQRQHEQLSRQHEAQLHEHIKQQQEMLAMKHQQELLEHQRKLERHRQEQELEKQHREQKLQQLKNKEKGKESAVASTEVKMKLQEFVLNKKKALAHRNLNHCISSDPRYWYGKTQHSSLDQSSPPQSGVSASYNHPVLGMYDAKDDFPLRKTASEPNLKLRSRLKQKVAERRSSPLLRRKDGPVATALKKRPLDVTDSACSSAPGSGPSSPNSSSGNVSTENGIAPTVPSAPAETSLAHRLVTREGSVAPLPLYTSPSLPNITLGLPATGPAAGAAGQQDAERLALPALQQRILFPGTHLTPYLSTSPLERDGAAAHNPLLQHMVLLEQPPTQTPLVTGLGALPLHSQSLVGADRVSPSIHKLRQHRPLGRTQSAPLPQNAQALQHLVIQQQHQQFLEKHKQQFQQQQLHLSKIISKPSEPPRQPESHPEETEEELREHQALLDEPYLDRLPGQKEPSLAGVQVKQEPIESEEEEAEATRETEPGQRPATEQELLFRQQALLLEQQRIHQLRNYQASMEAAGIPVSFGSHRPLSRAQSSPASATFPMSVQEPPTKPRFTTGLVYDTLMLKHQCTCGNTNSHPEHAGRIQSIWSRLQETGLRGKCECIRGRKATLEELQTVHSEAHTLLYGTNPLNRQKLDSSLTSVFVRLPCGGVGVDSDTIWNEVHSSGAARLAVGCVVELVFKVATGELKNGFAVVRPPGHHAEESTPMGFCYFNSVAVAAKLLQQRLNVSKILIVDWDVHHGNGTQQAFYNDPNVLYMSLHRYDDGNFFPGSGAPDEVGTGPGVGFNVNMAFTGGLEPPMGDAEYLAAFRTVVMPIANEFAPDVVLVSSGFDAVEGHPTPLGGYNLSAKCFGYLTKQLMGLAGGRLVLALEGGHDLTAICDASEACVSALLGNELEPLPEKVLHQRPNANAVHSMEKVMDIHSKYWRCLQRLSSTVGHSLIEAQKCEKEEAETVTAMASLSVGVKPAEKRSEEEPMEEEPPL
UniProt P56524: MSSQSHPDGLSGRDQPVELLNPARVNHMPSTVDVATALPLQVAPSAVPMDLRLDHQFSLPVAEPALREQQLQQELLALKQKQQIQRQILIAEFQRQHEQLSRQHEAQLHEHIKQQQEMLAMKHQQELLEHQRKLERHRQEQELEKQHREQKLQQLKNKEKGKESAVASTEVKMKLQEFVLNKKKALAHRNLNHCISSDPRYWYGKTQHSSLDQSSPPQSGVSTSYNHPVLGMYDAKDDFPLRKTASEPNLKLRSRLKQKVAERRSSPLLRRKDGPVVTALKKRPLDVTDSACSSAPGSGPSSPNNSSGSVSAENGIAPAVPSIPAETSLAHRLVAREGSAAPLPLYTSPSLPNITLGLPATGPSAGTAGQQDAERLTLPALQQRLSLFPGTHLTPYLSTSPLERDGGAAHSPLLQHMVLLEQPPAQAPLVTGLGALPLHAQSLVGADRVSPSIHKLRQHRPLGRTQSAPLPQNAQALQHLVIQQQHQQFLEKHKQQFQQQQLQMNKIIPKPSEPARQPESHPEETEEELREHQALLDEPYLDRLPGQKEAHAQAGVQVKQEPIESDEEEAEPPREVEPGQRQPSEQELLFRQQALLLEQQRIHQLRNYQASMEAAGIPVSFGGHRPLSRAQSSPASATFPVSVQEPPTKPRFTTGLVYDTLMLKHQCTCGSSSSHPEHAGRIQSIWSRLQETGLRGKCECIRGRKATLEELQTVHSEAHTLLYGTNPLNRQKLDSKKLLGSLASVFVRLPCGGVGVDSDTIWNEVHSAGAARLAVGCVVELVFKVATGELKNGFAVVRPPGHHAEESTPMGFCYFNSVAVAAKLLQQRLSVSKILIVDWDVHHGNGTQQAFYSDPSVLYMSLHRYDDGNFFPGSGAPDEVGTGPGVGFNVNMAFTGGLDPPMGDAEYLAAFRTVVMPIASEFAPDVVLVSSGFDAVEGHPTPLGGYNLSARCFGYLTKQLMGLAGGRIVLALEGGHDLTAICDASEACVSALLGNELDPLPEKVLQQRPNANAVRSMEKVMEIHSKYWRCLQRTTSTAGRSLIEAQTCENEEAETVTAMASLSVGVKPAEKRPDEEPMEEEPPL
UniProt Q63943: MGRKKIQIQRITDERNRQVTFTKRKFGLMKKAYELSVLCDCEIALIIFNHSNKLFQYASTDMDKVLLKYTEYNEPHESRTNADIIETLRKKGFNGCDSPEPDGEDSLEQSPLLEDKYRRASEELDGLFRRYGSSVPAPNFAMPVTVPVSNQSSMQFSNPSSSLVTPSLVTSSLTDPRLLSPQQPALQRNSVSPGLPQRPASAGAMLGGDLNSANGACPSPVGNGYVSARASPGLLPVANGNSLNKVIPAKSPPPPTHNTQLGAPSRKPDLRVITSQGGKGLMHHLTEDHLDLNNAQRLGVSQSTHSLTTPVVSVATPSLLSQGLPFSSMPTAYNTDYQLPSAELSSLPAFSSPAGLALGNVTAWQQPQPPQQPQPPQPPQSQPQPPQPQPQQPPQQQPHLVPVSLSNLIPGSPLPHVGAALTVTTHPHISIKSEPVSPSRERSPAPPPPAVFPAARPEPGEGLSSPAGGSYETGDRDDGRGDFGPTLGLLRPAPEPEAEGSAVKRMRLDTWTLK

How the values were obtained:
[1] = target: HDAC4, endogenous (mouse (endogenous in C2C12)) (UniProt Q6NZM9); experiment: co-IP; immunoprecipitation of endogenous HDAC4 (control Ig as control) from control (shCTL) and Bδ-KD (shBδ) C2C12 myoblasts at day 3 of differentiation; blot with anti-HDAC4 and anti-MEF2D
[2] = target: Flag-tagged HDAC4 (histone deacetylase 4) (UniProt P56524); experiment: co-IP; Flag immunoprecipitation of Flag-tagged HDAC4 or HDAC5 from proliferating C2C12 cells; blot with anti-Flag and anti-PP2A-Bδ

## MEF2D (Myocyte enhancer factor 2D), endogenous (from UniProt Q63943 1-514)
[1]
  binding: binds

B1: PP2A-Bδ (B55δ regulatory subunit of protein phosphatase 2A), endogenous (protein, UniProt Q925E7 1-453)
chain: MAGAGGGGCPAGGNDFQWCFSQVKGAVDEDVAEADIISTVEFNYSGDLLATGDKGGRVVIFQREQENKGRAHSRGEYNVYSTFQSHEPEFDYLKSLEIEEKINKIRWLPQQNAAHFLLSTNDKTIKLWKISERDKRAEGYNLKDEDGRLRDPFRITALRVPILKPMDLMVEASPRRIFANAHTYHINSISVNSDHETYLSADDLRINLWHLEITDRSFNIVDIKPANMEELTEVITAAEFHPHQCNVFVYSSSKGTIRLCDMRSSALCDRHAKFFEEPEDPSSRSFFSEIISSISDVKFSHSGRYMMTRDYLSVKVWDLNMEGRPVETHQVHEYLRSKLCSLYENDCIFDKFECCWNGSDSAIMTGSYNNFFRMFDRNTRRDVTLEASRENSKPRASLKPRKVCTGGKRKKDEISVDSLDFNKKILHTAWHPMESIIAVAATNNLYIFQDKIN
[2]
  binding: binds
